Results are given in words; binding and its absence hold for the method and conditions named.

The record followed here is article doi:10.1101/2022.06.21.496973.

Assay [1] has as its target Abl2 (murine, residues 74-1182, as used in SEC-MALS and turbidity assays) (murine) (UniProt Q4JIM5). In words: SEC-MALS. Background: Size exclusion chromatography separates by hydrodynamic size, large species first.
Assay [2] addresses 557-C (Abl2 C-terminal half, as used in SEC and SEC-MALS) (murine) (UniProt Q4JIM5). As to the kind of experiment: SEC-MALS.

For “Abl2 (murine, residues 74-1182, as used in SEC-MALS and turbidity assays) (from UniProt Q4JIM5 74-1182)”, the binding entry in assay [1] is on record as “no binding”.

B1: 557-C (Abl2 C-terminal half, as used in SEC and SEC-MALS) (domain or fragment, UniProt Q4JIM5 557-1182)
chain: GRTASSSSVVPYLPRLPLLPSKTRTLRKQGENKENLDGGLDAAESLASSSAPAGFIRSTQASSGSPALPRKQRDKSPSSLLEDAKETCFTRDRKGGFFSSFMKKRNAPTPPKRSSSFREMENQPHKKYELTGNFSPVASLQNADGFSVAPSQQEPNLVPAKCYGGSFAQRNLCADDDSGGGGGSGTAGGGWSGITGFFTPRLIKKTLGLRAGKPTASDDTSKPFPRSNSTSSMSSGLPEQDRMAMTLPRNCQRSKLQLERTVSTSSQPEENVDRANDMLPKKSEEGAAPARERPKAKLLPRGATALPLRAPDPAITESDSPGVGVAGVAAAPKGKERNGGTRLGVAGVPEDGEQLGWSSPAKAVAVLPTTHNHKVPVLISPTLKHTPADVQLIGTDSQGNKFKLLSEHQVTSSGDKDRPRRVKPKCAPPPPPVMRLLQHPSTCSDPEEEPTAPPAGQHTPETQEGGKKAAPGPVPSSGKPGRPVMPPPQVPLPTSSISPAKMANGTAGTKVALRKTKQAAEKISADKISKEALLECADLLSSAITEPVPNSQLVDTGHQLLDYCSGYVDSIPQTRNKFAFREAVSKLELSLQELQVSSTAAGVPGTNPVLNNLLSCVQEISDVVQR
For the molecule B1, the binding result in assay [2] was “no binding”.
